Measured values taken from PMC11866873.
Results are given in words; binding and its absence hold for the method and conditions named. Binding seen in cells or lysates may run through a third protein. Some binding calls cover weakened binding; strength is not graded here.

The chains behind the UniProt entries cited, without tags or fusion partners.
UniProt Q13535: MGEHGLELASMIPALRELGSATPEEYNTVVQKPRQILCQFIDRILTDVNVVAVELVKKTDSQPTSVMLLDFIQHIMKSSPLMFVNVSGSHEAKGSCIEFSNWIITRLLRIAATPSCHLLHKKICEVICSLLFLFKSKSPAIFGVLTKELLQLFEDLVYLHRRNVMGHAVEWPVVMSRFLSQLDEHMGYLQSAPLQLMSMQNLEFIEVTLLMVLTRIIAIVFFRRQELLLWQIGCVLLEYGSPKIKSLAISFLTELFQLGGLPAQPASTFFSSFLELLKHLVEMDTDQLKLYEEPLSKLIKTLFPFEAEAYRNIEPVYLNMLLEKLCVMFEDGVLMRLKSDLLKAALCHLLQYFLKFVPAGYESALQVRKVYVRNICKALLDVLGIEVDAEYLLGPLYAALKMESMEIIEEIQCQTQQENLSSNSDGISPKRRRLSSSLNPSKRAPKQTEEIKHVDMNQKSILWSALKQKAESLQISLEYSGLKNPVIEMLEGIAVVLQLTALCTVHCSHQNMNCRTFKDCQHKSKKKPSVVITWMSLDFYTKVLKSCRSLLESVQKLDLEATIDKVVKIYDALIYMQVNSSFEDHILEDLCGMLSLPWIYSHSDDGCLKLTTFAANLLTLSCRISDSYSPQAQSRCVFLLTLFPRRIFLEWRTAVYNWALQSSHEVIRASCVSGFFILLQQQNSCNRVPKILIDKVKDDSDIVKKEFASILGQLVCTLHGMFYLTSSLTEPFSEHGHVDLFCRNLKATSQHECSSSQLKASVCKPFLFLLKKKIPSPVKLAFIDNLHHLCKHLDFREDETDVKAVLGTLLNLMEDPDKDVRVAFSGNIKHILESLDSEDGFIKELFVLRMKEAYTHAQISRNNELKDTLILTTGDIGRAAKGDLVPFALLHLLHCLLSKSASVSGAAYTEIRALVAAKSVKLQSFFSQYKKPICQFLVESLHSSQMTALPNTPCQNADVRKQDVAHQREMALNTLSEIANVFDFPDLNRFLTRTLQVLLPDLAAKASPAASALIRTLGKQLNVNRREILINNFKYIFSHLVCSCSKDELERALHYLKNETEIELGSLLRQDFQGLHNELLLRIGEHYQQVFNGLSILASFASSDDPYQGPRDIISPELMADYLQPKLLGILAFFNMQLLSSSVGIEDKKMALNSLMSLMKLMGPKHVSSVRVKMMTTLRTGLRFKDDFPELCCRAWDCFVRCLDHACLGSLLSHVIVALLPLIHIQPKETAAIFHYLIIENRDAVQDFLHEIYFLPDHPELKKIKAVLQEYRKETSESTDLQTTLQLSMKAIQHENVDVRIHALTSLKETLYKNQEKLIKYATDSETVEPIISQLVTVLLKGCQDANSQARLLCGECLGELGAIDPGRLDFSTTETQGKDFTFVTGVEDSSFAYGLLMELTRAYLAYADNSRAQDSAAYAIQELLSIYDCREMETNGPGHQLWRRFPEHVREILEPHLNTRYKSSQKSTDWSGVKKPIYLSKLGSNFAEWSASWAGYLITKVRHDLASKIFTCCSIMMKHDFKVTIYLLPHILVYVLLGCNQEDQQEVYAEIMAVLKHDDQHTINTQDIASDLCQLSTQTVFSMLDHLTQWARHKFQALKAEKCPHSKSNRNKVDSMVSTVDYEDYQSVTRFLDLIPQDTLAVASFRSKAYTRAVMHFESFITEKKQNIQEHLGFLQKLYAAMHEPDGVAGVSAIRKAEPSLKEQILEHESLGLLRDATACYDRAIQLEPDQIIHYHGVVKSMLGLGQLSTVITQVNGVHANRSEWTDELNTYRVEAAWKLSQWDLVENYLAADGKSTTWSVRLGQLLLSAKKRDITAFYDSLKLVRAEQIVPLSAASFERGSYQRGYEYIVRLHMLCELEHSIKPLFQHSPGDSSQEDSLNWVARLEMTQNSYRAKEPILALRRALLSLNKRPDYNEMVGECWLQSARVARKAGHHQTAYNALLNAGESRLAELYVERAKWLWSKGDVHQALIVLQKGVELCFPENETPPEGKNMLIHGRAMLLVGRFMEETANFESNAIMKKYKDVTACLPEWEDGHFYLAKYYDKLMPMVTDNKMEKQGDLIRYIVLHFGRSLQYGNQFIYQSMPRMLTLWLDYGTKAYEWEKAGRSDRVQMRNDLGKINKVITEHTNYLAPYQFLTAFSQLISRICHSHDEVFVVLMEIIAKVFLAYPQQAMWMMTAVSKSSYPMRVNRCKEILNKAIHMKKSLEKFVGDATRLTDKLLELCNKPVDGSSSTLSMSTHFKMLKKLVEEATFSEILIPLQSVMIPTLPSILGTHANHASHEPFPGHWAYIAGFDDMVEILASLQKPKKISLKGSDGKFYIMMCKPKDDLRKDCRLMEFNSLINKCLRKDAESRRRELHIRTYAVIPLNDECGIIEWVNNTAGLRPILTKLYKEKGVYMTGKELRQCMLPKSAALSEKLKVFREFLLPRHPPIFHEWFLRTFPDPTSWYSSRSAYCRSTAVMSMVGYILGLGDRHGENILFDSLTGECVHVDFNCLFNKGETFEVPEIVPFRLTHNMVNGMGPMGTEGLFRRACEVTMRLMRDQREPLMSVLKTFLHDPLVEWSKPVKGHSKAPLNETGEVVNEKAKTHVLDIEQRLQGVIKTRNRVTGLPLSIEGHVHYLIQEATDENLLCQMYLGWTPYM

How the values were obtained:
[1] = target: Serine/threonine-protein kinase ATR (human (endogenous in MDA-MB-231)) (UniProt Q13535); experiment: proximity ligation; control and AEP KD MDA-MB-231 cells on coverslips, fixed with 4% paraformaldehyde, permeabilized with ice-cold methanol; stained with anti-AEP and anti-ATR or anti-AEP and anti-PPP1R10 (1:200)
[2] = target: T1, Serine/threonine-protein phosphatase 1 regulatory subunit 10 (human (endogenous in MDA-MB-231)) (UniProt Q96QC0); experiment: as above
T1 sequence: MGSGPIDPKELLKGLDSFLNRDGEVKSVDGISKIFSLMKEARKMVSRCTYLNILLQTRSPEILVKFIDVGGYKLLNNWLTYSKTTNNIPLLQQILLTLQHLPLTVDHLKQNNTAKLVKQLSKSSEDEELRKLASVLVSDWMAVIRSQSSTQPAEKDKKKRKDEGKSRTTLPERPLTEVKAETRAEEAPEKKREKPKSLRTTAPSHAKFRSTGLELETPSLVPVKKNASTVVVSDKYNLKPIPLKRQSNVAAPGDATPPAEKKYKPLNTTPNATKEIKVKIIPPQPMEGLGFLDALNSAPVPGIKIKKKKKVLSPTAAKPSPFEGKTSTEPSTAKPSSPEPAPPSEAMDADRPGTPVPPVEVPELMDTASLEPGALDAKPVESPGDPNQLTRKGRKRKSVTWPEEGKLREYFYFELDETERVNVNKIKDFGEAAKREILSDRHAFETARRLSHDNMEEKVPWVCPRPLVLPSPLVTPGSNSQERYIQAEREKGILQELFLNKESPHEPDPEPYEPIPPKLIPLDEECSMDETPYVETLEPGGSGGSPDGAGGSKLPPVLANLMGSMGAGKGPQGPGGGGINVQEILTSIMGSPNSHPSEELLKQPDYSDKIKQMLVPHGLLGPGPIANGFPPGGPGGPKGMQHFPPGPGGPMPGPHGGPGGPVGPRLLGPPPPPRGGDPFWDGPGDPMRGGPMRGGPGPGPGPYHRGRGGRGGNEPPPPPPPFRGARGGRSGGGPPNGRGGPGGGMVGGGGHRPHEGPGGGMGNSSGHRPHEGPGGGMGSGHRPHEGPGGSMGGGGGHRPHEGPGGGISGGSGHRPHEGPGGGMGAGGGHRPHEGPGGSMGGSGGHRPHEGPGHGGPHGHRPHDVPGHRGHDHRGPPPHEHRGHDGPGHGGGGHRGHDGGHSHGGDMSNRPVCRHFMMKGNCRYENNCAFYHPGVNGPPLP

binding [1]: binds | binding [2]: binds
B1: Asparagine endopeptidase (enzyme, UniProt Q99538 18-323)
chain: VPIDDPEDGGKHWVVIVAGSNGWYNYRHQADACHAYQIIHRNGIPDEQIVVMMYDDIAYSEDNPTPGIVINRPNGTDVYQGVPKDYTGEDVTPQNFLAVLRGDAEAVKGIGSGKVLKSGPQDHVFIYFTDHGSTGILVFPNEDLHVKDLNETIHYMYKHKMYRKMVFYIEACESGSMMNHLPDNINVYATTAANPRESSYACYYDEKRSTYLGDWYSVNWMEDSDVEDLTKETLHKQYHLVKSHTNTSHVMQYGNKTISTMKVMQFQGMKRKASSPVPLPPVTHLDLTPSPDVPLTIMKRKLMNTN
